{"source": "patent US20230338395A1", "about": "“PROPHYLAXIS AND TREATMENT OF CORONAVIRUS INFECTION” (priority 2020, published 2023)", "system": "SARS-CoV-1", "parameters": "species or system mice", "details": "mouse, in vivo", "note": "For at least one compound, name, drawing or mass did not settle the structure.", "data": [{"smiles": "CCOCc1nc2c(N)nc3ccccc3c2n1CC(C)(C)O", "note": "[resiquimod]", "values": [{"measurement": "survival", "value": "increase survival"}]}]}
